Consider 15 sequences from a protein production outcome set (Wang et al. 2014).
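Also: failed if final PepcDB status was selected cloned or expressed and not failed if soluble or beyond.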

A short description of the data set: label from the status in PepcDB records.
With “EILDEEENFKAKGDIFSKRTITKAKVIDHVDTSLEALVLSVSEKGYVDFDYMGSLTGKDRATLIEELRGEIYLNIREEQNFYRPLSFNPEDGDLPFACANGSNSYKYGYVTKDEYLSGNIRDKIAIVDSYLSKLRQTERELPHLGFVENGKEKELISYEMNRLEYQKAELTKILPKELEASEINVRLGATWIPIKDIEKFIFETLKTPGYARWDIKVKFSNITSEWNVDGKSRDKGNDLAEMTFGTSRVNAYKLIEDALNLKETKVFDQIINPDGSKTSVLNKKETMLAGQKQELLKEEFKNWIFNDQERRNRLVKLYNERFNSIRNREYDGSNLSFEGMNTEIDLRPHQ”, the protein production entry is on record as “failed”.

In the case of “LIANEKRFRLIIEASPSALFMVDKTGVITLVNTQGERLFGYTREELLGRSINMLLPETLREIHQQHLSHYLVHPIAKNMSMRDDLLGCCKDGTPLAVEVGLTPVHFSNGIYILTTINNISERKRIEAQRIEHMAELERINQELDRFAYIASHDLKSPL”, the protein production result was “failed”.

On to “MAASVEDEFEDAPDVEPLEPTLKNIIEQKSLKWIFVGGKGGVGKTTCSCSLAVQLAAVRESVLTRFEEPTRSTLSPSSCWSPTALPKSDLNHSHGSNTHLFYTRAQTHCLSIWFSANALIDAAPVIHNECWARFKGTVHPNKVHFYSPSSACKHL”, for which the protein production result is listed as “failed”.

For the sequence “MAMAIAMLPALFSSPSILTSRIRCGATANSGGAISSTSSNSDPRRGVPLYKPKSYEVLATDAANSLAFALQDSKSRLEIDFPPLPSSISSYKGSSDDFIDANIQLAVTVVRKLQEKIETRACIVFPDKPEKRRASQRFKAAFDSVDGISIGSLDDIPGTSVTNFFRSIRSTLDFDFEDENEGTWEPKEPPTLYIFINCSTRELSFIEKFVETFASSTPALLFNLELDTLRADLGLLGFPPKDLHYRFLSQFIPVFYIRTREYSKTVAVAPFVLNYNGALFRQYPGPWQVMLKQTDGSFACVAESPTRFTLGETKEELLQVLGLQEEKGSSLEFLRRGYKSATWWEEDVELEASSNWRN”, the protein production entry was “failed”.

As to “MAVSFLRIPIPSRVFWYPTRLIRVTPALLRFSSSAAFQPSSTSLSPPSSDNFLADKWESYRKKKVVIRIGYVGTDYRGLQIQRDDPSIKTIEGELEVAIYKAGGIRDSNYGDLHKIGWARSSRTDKGVHSLATSISLKMEIPETAWKDDPQGTVLAKCISKHLPENIRVFSVLPSNRRFDPRRECTLRKYSYLLPVDVLGIKNSFTSDEIDYHITDFNEILKEFEGEYPFHNYTQRSRYRRKSEQKIKQRNGRPPREPKSIKASESEFREENHIEIGEEEEEKEVDGESDEHVVTPDSDNSQVYSRAKWLYEPDETDKISGAHFRKVFRCRSGKLENSLGFGFVEISIWGESFMLHQIRKMIGTAVAVKRELLPRDIIRLSLNKFTRIVLPLAPSEVLILRGNSFEVRRLPERPGMEATGESEEVEKEIEEFYRAVMVPQVSIFLDSEKSPWKEWVDHLDRNDGLIDEELEDVRKGWEEWKAAKPWMNLKKTEDDEEALSSVSVPIHQAL”, the protein production entry is “failed”.

With “MAYIDYYKILGVDKNASQDDIKKAFRKLARKYHPDLNPNDPSAKDKFQEINEANEVLSDPEKRKKYDEYGEHWKHADEFEAQKKARQHAGGGGGGFSGFGGDGGSYWYSSDGEGFSGGDAGGFSDFFESMFGHRGGGGRGNAGFRGQDFNAELHLSLRDAARTHKQVLNVNGKQVRITIPAGVADGQVIKLKGYGGEGINGGPAGDLYITFKIAEDSVFKRLGDDLYVDVEMDLYTAVLGGEKVIDTLEGKVKLKIKPETQNGTKVRLKGKGFPVYKKEGQFGDLIITYSVKIPTNLTDRQKELFRELQQSMN”, the protein production result was “failed”.

In the case of “MDDAHESPSDKGGETGESDETAAVPGDPGATDTDGIPEETDGDADVDLKEAAAEEGELESQDVSDLTTVEREDSSLLNPAAKKLKIDTKEKKEKKQKVDEDEIQKMQILVSSFSEEQLNRYEMYRRSAFPKAAIKRLIQSITGTSVSQNVVIAMSGISKVFVGEVVEEALDVCEKWGEMPPLQPKHMREAVRRLKSKGQIPNSKHKKIIFF”, the protein production result is “not failed”.

For the sequence “MHHRMNEMNLSPVGMEQLTSSSVSNALPVSGSHLGLAASPTHSAIPAPGLPVAIPNLGPSLSSLPSALSLMLPMGIGDRGVMCGLPERNYTLPPPPYPHLESSYFRTILPGILSYLADRPPPQYIHPNSINVDGNTALSITNNPSALDPYQSNGNVGLEPGIVSIDSRSVNTHGAQSLHPSDGHEVALDTAITMENVSRVTSPISTDGMAEELTMDGVAGEHSQIPNGSRSHEPLSVDSVSNNLAADAVGHGGVIPMHGNGLELPVVMETDHIASRVNGMSDSALSDSIHTVAMSTNSVSVALSTSHNLASLESVSLHEVGLSLEPVAVSSITQEVAMGTGHVDVSSDSLSFVSPSLQMEDSNSNKENMATLFTIWCTLCDRAYPSDCPEHGPVTFVPDTPIESRARLSLPKQLVLRQSIVGAEVGVWTGETIPVRTCFGPLIGQQSHSMEVAEWTDKAVNHIWKIYHNGVLEFCIITTDENECNWMMFVRKARNREEQNLVAYPHDGKIFFCTSQDIPPENELLFYYSRDYAQQIGVPEHPDVHLCNCGKECNSYTEFKAHLTSHIHNHLPTQGHSGSHGPSHSKERKWKCSMCPQAFISPSKLHVHFMGHMGMKPHKCDFCSKAFSDPSNLRTHLKIHTGQKNYRCTLCDKSFTQKAHLESHMVIHTGEKNLKCDYCDKLFMRRQDLKQHVLIHTQERQIKCPKCDKLFLRTNHLKKHLNSHEGKRDYVCEKCTKAYLTKYHLTRHLKTCKGPTSSSSAPEEEEEDDSEEEDLADSVGTEDCRINSAVYSADESLSAHK”, the protein production entry is recorded as “failed”.

As to “MKFIRQLSLAAVLLVLPGASVAQVQPGQTFAARVVEVTDGDTFGVRRSAGGEVIIRLRGVDAPESDQPYGTAATRAARRYVGGKNVRVAVEEIGRYGRAVARIEAEGSDLGAMLIGDGLAWHYDEYAPNESEYRRLERQARNAKRGLWSQSSPVPPWEWRDRTSGPGETSFEDRDCSDFDTQPEAQRFFERHRSDSSGGDPHNLDRDGDGQACESLPGGRNM”, the protein production entry was “failed”.

For the sequence “MKKKINCFIPFGNPKDTIQTVKELQASELVNKIYLLSADTNKECLPGCECLLINGLYSTSTIKTIADNADDASYLLLYTKQTPLKLGLYALERMTQIIQSSSENAMVYADHYQLVDGVLKQAPVIDYQQGSLRDDFDFGSVLLFNSEIFTLASSILEETVFQYAAFYEMRLMLGNLFQIIHINEFLYTEIETDTRKSGEKQFDYVNPKNREVQIEMEKVCIKHLKEINAYVRPSSRTVNLDREAFEFEASVIIPVRNRIRTIRDAVNSALSQQTTFPFNVIVIDNHSTDGTTEALQEFSADNRLIHIIPQENDLGIGGCWNVGVHHEKCGKFAVQLDSDDLYKDEHTLQKIVDTFYQQNCAMVIGTYLMTDFQMNEIAPGVIDHKEWTVEDGPNNALRINGLGAPRAFYTPILRKIKFPNTSYGEDYAIGLSISREYTIGRIYDVIYLCRRWEGNSDAALDIEKINRNNFYKDSIRTWELQARIRMHSIDESFQRLVNEMIEKQKKDWKLAKKNYKELEQNLKKEKTLELKLGGDTKRVRFFPNPQRAISTMAQTDSQSIQERPCFLCNDNRPAEQTSLSLGHYEVCLNPYPIFRRHLTIIEEEHTPQTIKNRFEDMLFLAENMNEFLILYNGPECGASAPDHMHFQAAGKEEKIANPFGMTFISDMLSSEDSVHSHLENGFTTSIGISSPNRRGIIEMFEYLYDKIVSIYHDKEPLINVIAWYGLETVNRTGGDEIKQWNCIIFLRSKHRPECYYAQGKKGLLISPAIAEMCGVFPIVREEDLDKITAKKITQIYKEVSLSQEQLKALTDQTS”, the protein production entry is recorded as “failed”.

In the case of “MLESGVLKEGALEKRSDGLLQLWKKKRCVLTEDGLVLHPHKHHHQHQHQQQHDTGCKVKELHFANMKTVDCVERKGKYVYFTVVMSEGREIDFRCLQDEGWNAEITLRMVQYKNRQAILAVKSSRQKQQQLLVVSAQKMVRSAQ”, the protein production entry is given as “failed”.

For the sequence “MNLGWLSLLALIPILTVFLLLVVLRWPAKRAMPIAFFVTALAAYFLWEVPGHQIGAASVKGVVTALEVLFIVFGAVLLLNTLKESGAIHTIRQGFIEISPDRRVQAIIICWLFGSFIEGASGWGTPAAILAPLLVAIGFPAMASVMVALIIQSTPVSYGAVGTPILVGVSSGLAGADNVAVEASGLGLTVDEYVRMIGGQVSIIHGIVGLFIPLIMVTMLTFFFGKNRSLKEGCEVWPFAIFAGLAFTIPYMIVANVLGPEFPSLFGGLIGLAIVVPAAKKGWLLPKRSWSFAHESMWDPEWTGTLKADSLAEPTIRPWVAWLPYVLIGLLLVLTRLNGLPFGNWLKRLEFSVEGLFGTAISITSTPLFLPGFIMVIASLVGYVIYRMKVDSYMHAVKQSSAMIVRAAPALLFAVPMVQVFINSGDNASGFVSMPLVLAEGVSQLVGESWPLVAPVIGALGAFVAGSNTISNMMFSLFQFGTAENVGLNPATIVALQAVGGAAGNMICVHNVVAASATAGLIGKEGALIRKLLIPTGYYLFFAGAIGYVAFFGIGFNIGTIMAILVIIGIVWMIVKGNQQKKEKLNNIEEKFGG”, the protein production result is on record as “failed”.

In the case of “MQKKYITAIIGTTALSALASTHAQAATTHTVKSGESVWSISHKYGISIAKLKSLNGLTSNLIFPNQVLKVSGSSSRATSTNSGTVYTVKAGDSLSSIAAKYGTTYQKIMQLNGLNNYLIFPGQKLKVSGKATSSSRAKASGSSGRTATYTVKYGDSLSAIASKYGTTYQKIMQLNGLTNFFIYPGQKLKVPGGSSSSSSSNNTRSNGGYYSPTFNHQNLYTWGQCTWHVFNRRAEIGKGISTYWWNANNWDNASAADGYTIDYRPTVGSIAQTDAGYYGHVAFVERVNSDGSILVSEMNWSAAPGNMTYRTIPAYQVRNYKFIHLEHHHHHH”, the protein production result is listed as “failed”.

For the sequence “MSGLWQSMTTAWMSRTDRSALLDFWLGGRGAGTLIANTDIDEQEMRRIRAAQINSVTRLTPVTMSINVANAALILFTFWDNDARPQLLAWTAMIVFAAGSAVQSWLRNRFEPRLEASAHAIRRMTLHALLLGLIWGAMPVMVFVKADPGDQLIVACVAAGMISGGAFTLSTVPRAGLAYTWSLAAGSALSLALCDGMAYRITAAFLVLYAVFMSRNLISHGEMFFDNLRAKFELERQTEIISLLLKDFQANASDWLWQTDAHGRLVHVPERFVEVAKLPPSLLIGAPLADVIGMLCPEDGRCAMGVAAKMAQREPMNDLVVHVVIGGTPRLWSLTAKPMFDAAGEFAGYRGVGRDVTERWRAEQAEAENRAKSSFLAMMSHEIRTPMNGVLGLANSLLETKLDPEQQQAVTTIRDSGDDLLRILNDILDLSKLEAGRLEFEQADFSPTTLVESVRAIIEPEVRGKGIELKVDIDPRLPPSLNGDAARIRQVLLNLAANAVKFTEQGSIAIVLTCVKRNDSHATVEWQVTDTGIGISPDRVGSLFTDFAQADVSINRRFGGTGLGLAISRRIVEQMGGDIAVTSREGEGSTFRFSLDLPWSNAWIADHRLDRLGSDDLRTRIAMLGRPLRVLIAEDDSTNQMVVMKMLQEFAAEITVVSDGTDAVQAAGEGEFDVVLMDVRMPNMDGLAATRAIRGKGGALAKLPIIALTANAFPDDVKVCRDAGMNDFLAKPLRKPALVAAVLRALRGASTPVTMPSPPMLVDLDTLAELTAEIGQDQVNEMVALFFAETERRIALFRRFAEHMDRHDLEVEAHSLKGGARTLGFHPIAEIARSIEREAGSISPEALDLFTGQLNKALIELRRQCEGSLKLAS”, the protein production result is given as “failed”.

Regarding “MTATSLSKGANVAVDSPAVRAELVWSPGPGVPEVDASALLLTSAGRVRDDGDFVFYNQPRHTSGAVGHLGKRVGPGANAGLTTDAVEVDLRAVEAAVERIVLCASADGGTFGRVPGLSLRLLDAATGTELARFDITADTETALVGGELYRRAGTWKFRAVGQGYASGLAGLATDFGITVDDDAPPTAPATPATAPPTAPPVPAPPTTAVPPPPPALASPPVPAPAATGPRLTKGEERLPVDMRKRLSLRKEQVAVSLSKHGAAGITARVVLVLDASGSMSFLYSKGVVADVVERMAAVAAQLDDDGEMQAWTFASNPARLPDLPLGDLPKWLRLHVRVGEISLFRRGRKKGLHPEQVDMRAVGIQNEEQKVIAEVRAFVRANPAPVPTLVLFFSDGGVYRNAEIERELREAVEEPVFWQFVGLGRSNYGVLERFDTLPGRRVDNVGFFAVDDIGTVPDPELYDRLLSEFPSWVTAAGRAGIL”, the protein production result is recorded as “failed”.
